PubChem BioAssay AID1053208 – Peter MacCallum Cancer Centre – 2014
This is an unselected part of about 17,000 deposited reagents. Of all reagents, 788 (4.7%) are marked active. 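Calls rest on z-score classes alone; an extra cut-off of viability at most 70% of control was not applied to them.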 A number with no mark means an inactive call.

Purpose: 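Genes whose silencing cuts survival of bone tumour cells only with doxorubicin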 (primary screen)
Cells: mouse osteosarcoma cells, early-passage culture from an engineered mouse model of fibroblastic bone tumour
Reagent: siRNA pool against mouse genes, 40 nM
Duration: about 120 h (48 h before drug, then 72 h with drug)
Challenge: doxorubicin 100 nM for 72 h, roughly 30-40% inhibitory dose
Detection: 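Viability read as ATP luminescence after 72 h of 100 nM doxorubicin or none, duplicate wells averaged, scaled to non-targeting siRNA, then expressed as robust z-scores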
Reading the numbers: viability z-score with doxorubicin and doxorubicin viability vs non-targeting: higher = more viable cells under doxorubicin; viability z-score without drug: higher = more viable cells with knock-down alone; z-score of drug to no-drug ratio: higher = less drug sensitisation by knock-down
Hit rule: 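a pool counts as active when its viability z-score with doxorubicin is -2 or below and its z-score without drug lies between -2 and 2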

Target gene	combined z-score class	viability z-score with doxorubicin	viability z-score without drug	z-score of drug to no-drug ratio	doxorubicin viability vs non-targeting
Hoxb8	no change with or without drug	0.79	0.67	0.45	1.01
Lilra6	high cell count with doxorubicin only	2.14	1.52	1.24	1.13
Nsg1	no change with or without drug	-0.45	0.34	-0.56	0.9
Zfp938	no change with or without drug	-0.67	-1.18	0.22	0.88
Or5ac24	no change with or without drug	1.69	-0.67	2.47	1.09
Dclre1a	high cell count with doxorubicin only	2.02	1.52	1.12	1.12
Prpsap1	no change with or without drug	0.22	-0.34	0.56	0.96
Alb	no change with or without drug	-0.22	0.17	-0.22	0.92
Rpl27	low cell count with and without drug	-3.82	-6.24	0.56	0.6
Stk17b	no change with or without drug	1.57	-0.17	1.91	1.08
Ssh3	no change with or without drug	0.67	-0.17	0.9	1
Coa4	high cell count without drug only	0.67	2.19	-0.56	1
Or5h24-ps1	no change with or without drug	-0.22	0.17	-0.22	0.92
Tpo	no change with or without drug	0.11	0.17	0.11	0.95
Or5w17	no change with or without drug	0	-0.51	0.45	0.94
Tacr1	no change with or without drug	-0.67	-0.84	0	0.88
Supt5	low cell count with doxorubicin only (active)	-2.47	-0.84	-2.02	0.72
Vmn1r14	no change with or without drug	-1.8	-1.52	-0.79	0.78
Adtrp	high cell count with doxorubicin only	3.15	1.18	2.47	1.22
Il4i1	no change with or without drug	0.34	-0.17	0.56	0.97
Ubb	no change with or without drug	-1.57	-1.52	-0.56	0.8
Esr1	no change with or without drug	-0.67	-1.85	0.79	0.88
Chgb	no change with or without drug	1.01	1.18	0.34	1.03
Rag2	no change with or without drug	0.45	-0.17	0.67	0.98
Cd300lb	no change with or without drug	1.01	0.17	1.01	1.03
Grem1	no change with or without drug	-0.11	-1.18	0.9	0.93
Sspo	no change with or without drug	-1.12	-0.84	-0.56	0.84
Srp68	no change with or without drug	0.67	1.52	-0.22	1
Poglut2	no change with or without drug	-1.12	0.51	-1.35	0.84
Dnajc19	no change with or without drug	-1.8	0.67	-2.14	0.78
Fgd2	no change with or without drug	-0.45	-0.17	-0.22	0.9
Lce3b	high cell count with doxorubicin only	3.04	0.84	2.59	1.21
Vps33a	no change with or without drug	-0.22	0.34	-0.34	0.92
Snx19	no change with or without drug	0.22	-0.51	0.67	0.96
Bmp4	no change with or without drug	1.8	0.51	1.57	1.1
Drc11l	no change with or without drug	-0.67	0.84	-1.12	0.88
Sall2	no change with or without drug	0.67	1.18	0	1
Mmp1a	no change with or without drug	0.22	0.84	-0.22	0.96
Ivd	no change with or without drug	0.67	1.85	-0.45	1
Prcp	no change with or without drug	0.9	0.67	0.56	1.02
Utp23	low cell count with doxorubicin only (active)	-2.25	-1.18	-1.57	0.74
Lpcat2	no change with or without drug	-0.67	-0.67	-0.11	0.88
Thy1	no change with or without drug	-0.22	-0.51	0.22	0.92
1810009A15Rik	no change with or without drug	0	0.67	-0.34	0.94
Or2y1f	no change with or without drug	-0.56	-1.18	0.34	0.89
Fbxl6	no change with or without drug	-1.01	0.84	-1.46	0.85
Chpf	no change with or without drug	-1.57	0.51	-1.8	0.8
Mt3	no change with or without drug	-0.79	-1.35	0.22	0.87
Mlf2	high cell count without drug only	0.22	2.53	-1.24	0.96
Slc16a14	no change with or without drug	-1.01	-0.17	-0.9	0.85
